According to paper PMC11547093, “Novel Phenoxyalkanoic Acid Derivatives as Free Fatty Acid Receptor 4 Agonists for Treating Type 2 Diabetes Mellitus” (International Journal of Molecular Sciences, 2024):

Legend:
DIO mice = assay: anti-hyperglycemic effects (OGTT, insulin) in diet-induced obese (DIO) mice; assay type: in vivo, C57BL/6 mice; details: 30 mg/kg oral 30 min before glucose 2 g/kg, AUC -30 to 120 min
Procedure: During the experimental period, plasma insulin levels were measured 30 min after glucose administration using an insulin ELISA Kit.
Plasma insulin levels were measured using a mouse insulin RIA kit 30 min after oral glucose loading (Beijing North Institute of Biological Technology, Beijing, China).

normal ICR mice = assay: oral glucose tolerance test in normal ICR mice; details: 20 mg/kg by gavage 30 min before glucose 2 g/kg, AUC 0-120 min
[1] = pharmacokinetic study in ICR mice; details: male, mouse, in vivo, po, 10 mg/kg

AUC [1]: 2400 ± 250 ng·h/mL
Cmax [1]: 1240 ± 170 ng/mL
half-life [1]: 44.4 ± 17.4 min
SMILES: Cc1ccc(-c2ccc(F)cc2COc2ccc(CCC(=O)O)cc2)cc1 [TUG-891, reference compound]
reduction of blood glucose AUC versus vehicle-treated group (DIO mice): 16.5%
reduction of blood glucose AUC versus vehicle-treated group (normal ICR mice): 22.4%
